Measurements reported in PubChem BioAssay AID652243 (Drosophila RNAi Screening Center, 2013)
Aim: 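Fly regulators of androgen-dependent reporter output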 (primary screen). Cells: Drosophila S2R+ cells. Reagent: long dsRNA against Drosophila genes. Timing: 72 h (48 h, then 24 h hormone). Challenge: synthetic androgen R1881 at 10 nM for 24 h. Detection: 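Per-well raw luminescence of the androgen-driven firefly reporter and of the Renilla control, two replicates each, without normalisation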. Direction: firefly reporter light: higher = more light from androgen-responsive reporter; Renilla control light: higher = more constitutive control signal (cell number, transfection). Active means: 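Hit when the log firefly-to-Renilla ratio dropped or increased by a fixed fold versus the mean of GFP or LacZ controls across duplicate plates; lowering cut given as 1.5 and as 3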. Calls: active = hit: reporter lowered or raised; inactive = no hit.
The deposit covers about 24,000 reagents; this is a random part of those with a known target gene and a result. Over the whole deposit, 246 (1%) are marked active. 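Plates not normalised; calls are printed but the firefly/Renilla ratio behind them is not deposited; fold cut for lowering reported inconsistently.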 The raw values are shown without normalisation. Reagents against one gene are numbered here. A plus sign joins genes that one reagent is predicted to hit. The record does not give: the amount of reagent.

no.	Target gene	reagent	firefly reporter light, replicate 1	firefly reporter light, replicate 2	Renilla control light, replicate 1	Renilla control light, replicate 2	Outcome
1	CG9410 + CG15908	1	1.44e5	1.02e5	1.11e6	1.13e6	inactive
2	CG9410 + CG15908	2	2.98e5	3.72e5	2.72e6	2.45e6	inactive
3	CG9410 + CG15908	3	4.07e5	3.38e5	8.93e5	7.76e5	inactive
4	dgo	1	1.11e6	1.29e6	1.23e6	1.25e6	inactive
5	dgo	2	2.57e5	1.84e5	6.94e5	4.30e5	inactive
6	CG6220	1	81418	1.07e5	1.50e6	1.50e6	inactive
7	CR33221	1	9.38e5	7.56e5	7.25e5	6.93e5	inactive
8	CG32448	1	1.05e6	7.81e5	1.70e6	1.90e6	inactive
9	CG13229	1	5.23e5	4.38e5	2.09e6	1.53e6	inactive
10	Tgt	1	4.42e5	7.72e5	1.66e6	1.63e6	inactive
11	Alg1	1	55314	55674	4.04e5	3.53e5	inactive
12	Alg1	2	5.63e5	5.30e5	1.23e6	1.23e6	inactive
13	Hsc20	1	9.42e5	8.03e5	1.92e6	2.26e6	inactive
14	CG12237	1	2.96e5	3.96e5	2.15e6	2.74e6	inactive
15	CG12237	2	5.31e5	7.63e5	8.20e5	9.02e5	inactive
16	CG12237	3	1.03e6	1.06e6	1.27e6	1.33e6	inactive
17	iav	1	30648	35310	1.53e6	1.10e6	inactive
18	iav	2	7.50e5	6.21e5	1.09e6	9.81e5	inactive
19	CG2187	1	2.15e5	2.37e5	2.75e6	3.14e6	inactive
20	CG2187	2	6.54e5	5.60e5	6.35e5	6.65e5	inactive
21	CG40551 (retired record)	1	5.61e5	5.77e5	3.67e6	3.47e6	inactive
22	CG1850	1	3.20e5	3.41e5	1.95e6	1.98e6	inactive
23	CG33259	1	3.42e5	2.48e5	2.81e6	2.36e6	inactive
24	CG33259	2	5.90e5	4.44e5	1.67e6	1.58e6	inactive
25	defl	1	9.99e5	8.45e5	1.37e6	1.48e6	inactive
26	CG7601	1	1.13e5	99350	9.75e5	7.14e5	inactive
27	shi	1	87763	1.06e5	6.42e5	6.67e5	inactive
28	shi	2	6.71e5	6.58e5	1.07e6	1.07e6	inactive
29	fon	1	9.59e5	7.41e5	1.35e6	1.34e6	inactive
30	CG31556 (retired record)	1	3.56e5	4.02e5	1.05e6	2.39e6	inactive
31	CG31556 (retired record)	2	5.85e5	5.81e5	2.74e6	2.01e6	inactive
32	CG31556 (retired record)	3	4.71e5	4.25e5	6.40e5	6.94e5	inactive
33	CG18258	1	3.67e5	2.99e5	3.51e6	3.11e6	inactive
34	CG18258	2	4.41e5	3.83e5	1.12e6	1.05e6	inactive
35	Prosalpha4T2	1	2.29e5	2.19e5	1.62e6	1.36e6	inactive
36	Prosalpha4T2	2	3.66e5	5.53e5	1.41e6	2.25e6	inactive
37	Prosalpha4T2	3	6.97e5	1.06e6	1.71e6	1.53e6	inactive
38	bora	1	30101	11824	5.80e5	3.60e5	inactive
39	Cyp28c1	1	2.98e5	3.29e5	4.17e6	3.04e6	inactive
40	lncRNA:CR32661 + lncRNA:CR43157	1	4.15e5	3.95e5	4.15e6	3.91e6	inactive
41	CG14708	1	1.05e5	1.74e5	2.06e6	2.26e6	inactive
42	CG14708	2	4.06e5	3.20e5	9.52e5	8.35e5	inactive
43	RanBPM	1	2.95e5	4.00e5	1.13e6	9.65e5	inactive
44	RanBPM	2	7.67e5	1.19e6	1.09e6	1.21e6	inactive
45	Kaz	1	2.53e5	2.44e5	3.10e6	3.05e6	inactive
46	sdk	1	36060	30002	3.55e5	2.03e5	inactive
47	CG4042	1	3.00e5	1.88e5	3.04e6	2.23e6	inactive
48	CG4042	2	2.74e5	3.85e5	1.26e6	1.02e6	inactive
49	RabX5	1	94106	1.03e5	1.14e6	9.80e5	inactive
50	RabX5	2	1.08e6	8.34e5	1.55e6	1.43e6	inactive
51	Tgs1 + moi	1	6.76e5	5.38e5	9.04e5	7.07e5	inactive
52	Tgs1 + moi	2	2.13e5	1.47e5	7.58e5	4.77e5	inactive
53	CG13841	1	1.70e5	1.58e5	1.51e6	1.21e6	inactive
54	CG13841	2	2.11e5	2.05e5	4.43e5	4.24e5	inactive
55	JYalpha	1	2.39e5	2.50e5	3.22e6	2.50e6	inactive
56	par-1	1	13542	13090	53251	86137	inactive
57	par-1	2	82770	96837	1.20e6	1.36e6	inactive
58	par-1	3	8.50e5	1.11e6	1.70e6	2.23e6	inactive
59	par-1	4	1.08e5	80439	1.03e6	1.20e6	inactive
60	par-1	5	65934	70386	8.80e5	8.46e5	inactive
61	par-1	6	6.52e5	5.05e5	1.83e6	1.33e6	inactive
